Measurements reported in publication PMC5240339.
These are yes or no findings as the source states them, for the method shown. In cells and extracts the contact can be indirect. Some binding calls cover weakened binding; strength is not graded here.

By UniProt entry, the sequences of proteins in these tests, tags left out. Where a name states a change or a piece, a line headed by the entry shows the natural chain unless it says otherwise.
UniProt P35637: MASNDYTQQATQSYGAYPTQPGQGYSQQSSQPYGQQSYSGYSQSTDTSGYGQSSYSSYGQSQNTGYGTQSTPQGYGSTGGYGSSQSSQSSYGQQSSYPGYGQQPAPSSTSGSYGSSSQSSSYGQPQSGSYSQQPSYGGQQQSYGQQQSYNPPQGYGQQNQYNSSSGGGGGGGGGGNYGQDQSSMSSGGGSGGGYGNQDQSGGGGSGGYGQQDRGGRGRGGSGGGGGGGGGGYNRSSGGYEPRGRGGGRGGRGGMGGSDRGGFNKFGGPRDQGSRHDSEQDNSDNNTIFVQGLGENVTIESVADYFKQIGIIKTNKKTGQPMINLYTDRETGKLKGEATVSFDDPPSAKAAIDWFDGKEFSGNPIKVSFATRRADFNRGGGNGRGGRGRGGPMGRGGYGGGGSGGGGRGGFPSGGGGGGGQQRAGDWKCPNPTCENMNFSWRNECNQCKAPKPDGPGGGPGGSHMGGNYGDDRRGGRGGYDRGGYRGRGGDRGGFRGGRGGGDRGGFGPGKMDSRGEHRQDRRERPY
UniProt Q9JIF0: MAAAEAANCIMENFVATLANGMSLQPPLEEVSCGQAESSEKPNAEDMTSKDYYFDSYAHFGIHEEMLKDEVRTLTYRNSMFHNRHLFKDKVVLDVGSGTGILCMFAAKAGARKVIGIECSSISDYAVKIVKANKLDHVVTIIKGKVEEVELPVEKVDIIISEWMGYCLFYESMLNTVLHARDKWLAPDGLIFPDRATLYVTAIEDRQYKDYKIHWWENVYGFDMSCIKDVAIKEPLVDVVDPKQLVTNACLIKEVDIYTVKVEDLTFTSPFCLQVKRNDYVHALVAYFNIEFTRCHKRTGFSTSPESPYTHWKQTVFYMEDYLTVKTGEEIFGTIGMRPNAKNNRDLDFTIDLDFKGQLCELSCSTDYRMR

Key:
[1] = target: AAV-FLAG-FUS-R521C (UniProt P35637); experiment: co-IP; lysates of cultured mouse cortical neurons infected with AAV-FLAG-FUS for 4-6 days; anti-FLAG IP, western blot with anti-PRMT1
[2] = target: AAV-FLAG-FUS-WT (UniProt P35637); experiment: as above

## endogenous PRMT1 of cultured mouse cortical neurons (from UniProt Q9JIF0 1-371)
[1]
  binding: binds
[2]
  binding: binds
